Measured values reported in PubChem BioAssay AID504467 (National Center for Advancing Translational Sciences (NCATS), 2011).
About 7,700 (2.3%) of roughly 330,000 compounds were called active. This list was built around the results that the source calls inconclusive (neither active nor inactive); the mix of calls is not that of the screen. Calls come from the whole dose curve; as a rule, active = well fitted inhibition curve with a large enough effect; inconclusive = small, poorly fitted or top-dose-only effect, or effect the other way; inactive = flat fitted curve, though single readings scatter. A potency beside an inconclusive call is a rough fit, not a confirmed value.

Experiment: qHTS screen for small molecules that inhibit ELG1-dependent DNA repair in human embryonic kidney (HEK293T) cells expressing luciferase-tagged ELG1; note: nearly all actives have a fitted effect of over 55% in size
Conditions: HEK293T ELG1-luciferase reporter, luminescence, 16 h, DNA damage induced by 5-fluorouridine; series mostly up to 46.1 µM
Procedure, shortened: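 Reporter activity after DNA damage by 5-fluorouridine is monitored. Compound-treated cells incubate 16 hr at 37 °C, then ONE-Glo is added for 30 min before luminescence reading.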
Potency is the fitted concentration of half-maximal effect.

Row | SMILES | Potency
1 | CC[n+]1c(/C=C2/C=C(C)CC(C)C2)sc2ccccc21 (configuration not stated) | inconclusive: 20.6 µM [inhibitor, single point]
2 | CCN(CC)c1cc(Oc2ccccc2)ncn1 | inconclusive: 8.2 µM [activator, partial curve]
3 | CCCN(CC(=O)Nc1ccccc1C)C(=O)c1cccc(S(=O)(=O)N2CCN(c3ccccc3)CC2)c1 | inactive
4 | CC1(c2cccc(Br)c2)NC(=O)N(CC(=O)Nc2ccc(S(N)(=O)=O)cc2)C1=O (configuration not stated) | inactive
5 | Cc1cc(NC(=O)c2cc([N+](=O)[O-])ccc2Cl)no1 | inactive
6 | O=C(c1ccco1)N1CCN(c2ccc([N+](=O)[O-])cc2F)CC1 | inactive
7 | Cc1cc(C)nc(NC(N)=NCCc2c[nH]c3ccccc23)n1 | inconclusive: 9.2 µM [inhibitor, partial curve]
8 | CC(C)c1ccccc1NC(=O)Nc1ccc(F)cc1F | inconclusive: 18.3 µM [inhibitor, single point]
9 | NC1=NC(c2cccc(O)c2)n2c(nc3ccccc32)N1 (configuration not stated) | inactive
10 | Cc1cc(NC(=O)/C=C/c2ccccc2Cl)n(-c2nc3ccccc3[nH]2)n1 | inconclusive: 29.1 µM [inhibitor, single point]
11 | COCCn1c(C23CC4CC(CC(C4)C2)C3)n[nH]c1=S | inconclusive: 14.1 µM [inhibitor, single point]
12 | CCCN1Cc2cccc(C(=O)NCCc3cccc(C)c3)c2C1=O | inactive
13 | COc1ccccc1N1C(C)=CC(=C(C#N)c2nc3ccccc3s2)C=C1C | inconclusive: 7.31 µM [activator, partial curve]
14 | c1ccc(Nc2nc(-c3cccs3)cs2)nc1 | inconclusive: 1.84 µM [activator, partial curve]
15 | CC(NC(=O)Cc1ccccc1[N+](=O)[O-])c1ccccc1 (configuration not stated) | inactive
16 | COc1ccc(/C=N/NC(=O)c2nn(-c3ccccc3)c(=O)c3c(N)scc23)cc1 | inconclusive: 6.51 µM [inhibitor, partial curve, poor fit]
17 | CSc1nnc2ccc(-c3cccs3)nn12 | inconclusive: 20.6 µM [activator, partial curve]
18 | CCc1c(C)c(C#N)c2nc3ccccc3n2c1NCCOC | inconclusive: 29.1 µM [inhibitor, partial curve, poor fit]
19 | CC(=O)Cn1cnc2c(cnn2-c2ccc(C)c(C)c2)c1=O | inconclusive: 9.2 µM [activator, partial curve]
20 | COC(=O)N1[C@H](Cc2ccccc2)C=C[C@]1(C)C(=O)NCc1ccccn1 | inconclusive: 16.4 µM [activator, single point]
21 | CC(C)(C)[C@H]1COC(=O)CCC/C=C/C[C@H](CC(=O)N(CCO)Cc2ccccc2)C(=O)N1 | inconclusive: 7.3 µM [activator, partial curve]
22 | CCCc1nc2ccc(N)cc2c(=O)n1Cc1ccccc1Cl | inconclusive: 9.2 µM [activator, partial curve, poor fit]
23 | Cc1ccc(C(=O)NCCOc2ccc(Cl)cc2)cc1 | inconclusive: 23.1 µM [activator, partial curve]
24 | O=C(c1cccc(S(=O)(=O)Nc2ccccc2Cl)c1)N1CCC1 | inactive

Row | SMILES | Potency
25 | CCS(=O)(=O)N1CCC(N2CCN(c3ccccc3)CC2)CC1 | inactive
26 | COCCN1C(=O)c2oc3ccccc3c(=O)c2C1c1cccc(O)c1 (configuration not stated) | inactive
27 | COc1ccc(C(=O)Cn2nnc(-c3cccs3)n2)cc1 | inconclusive: 5.8 µM [activator, partial curve, poor fit]
28 | CCCCNC(=O)c1cc(C)no1 | inactive
29 | Cc1cc(C(=O)Nc2cc(C)n(Cc3ccc(Cl)cc3)n2)no1 | inactive
30 | COc1ccc(C(C)=O)cc1COc1cccc2cccnc12 | inconclusive: 0.1 µM [activator, full curve, poor fit]
31 | COc1cc(/C=N/O)ccc1OCc1ccc(Cl)cc1 | inconclusive: 2.91 µM [activator, full curve]
32 | COc1ccc2c(c1)-c1c(ssc1=S)C(C)(C)N2C(=O)CSC1=NCCS1 | inconclusive: 16.4 µM [inhibitor, single point]
33 | CCOc1ccc(NC(=O)c2ccco2)c([N+](=O)[O-])c1 | inconclusive: 3.26 µM [activator, full curve]
34 | C=CCN(CC=C)c1cnn(-c2nc3ccccc3[nH]2)c(=O)c1Cl | inconclusive: 1.64 µM [activator, full curve]
35 | Cc1ccc(-c2nn3c(C)nnc3s2)cc1NC(=O)c1ccc(Br)o1 | inactive
36 | O=C(NCCc1ccccc1)c1noc2c1CCCCC2 | inconclusive: 7.31 µM [activator, partial curve]
37 | COc1ccc(OCCCC(=O)N2CCN(S(=O)(=O)c3cccc(F)c3)CC2)cc1 | inactive
38 | CC(=O)c1ccc(NC(=S)N(Cc2ccccc2)C(C)C2CC2)cc1 (configuration not stated) | inconclusive: 23.1 µM [inhibitor, single point]
39 | CC(C)(C)c1ccc(NC(=O)COC(=O)c2ccc([N+](=O)[O-])s2)cc1 | inconclusive: 32.6 µM [activator, single point]
40 | C=CCn1c(=O)/c(=C/c2ccc(C)o2)s/c1=C(/C#N)C(=O)c1ccccc1 | inconclusive: 20.6 µM [inhibitor, partial curve]
41 | COc1ccc2c(CC(=O)OCC(=O)Nc3ccccc3[N+](=O)[O-])coc2c1 | inconclusive: 25.9 µM [activator, partial curve, poor fit]
42 | c1coc(CSc2ncnc3c2oc2ccccc23)c1 | inconclusive: 23.1 µM [activator, partial curve]
43 | CCOC(=O)c1cc2sccc2n1CC(=O)O | inactive
44 | O=S(=O)(Cc1ccc(Cl)cc1)N1CCCCCC1 | inconclusive: 20.6 µM [activator, single point]
45 | CCCCN1C(=O)/C(=C2/C=CC=CN2C)SC1=S | inconclusive: 25.9 µM [activator, single point]
46 | O=C(CCCN1CCC(C(=O)c2ccc(F)cc2)CC1)c1ccc(F)cc1 | inactive
47 | CCOc1ccc(CN=C(N)N=C(N)N)cc1Cl | inactive

Three compounds picked at random from those above:
Row | SMILES | Potency
26 | COCCN1C(=O)c2oc3ccccc3c(=O)c2C1c1cccc(O)c1 (configuration not stated) | inactive
33 | CCOc1ccc(NC(=O)c2ccco2)c([N+](=O)[O-])c1 | inconclusive: 3.26 µM [activator, full curve]
45 | CCCCN1C(=O)/C(=C2/C=CC=CN2C)SC1=S | inconclusive: 25.9 µM [activator, single point]
